Laboratory results as given in US20180028480A1, “METHODS OF REDUCING OR PREVENTING OXIDATIVE MODIFICATION OF MEMBRANE POLYUNSATURATED FATTY ACIDS” (Amarin Pharmaceuticals Ireland Limited, priority 2015, published 2018).
At least one compound was matched to its structure with a doubt left.

Experiment: X-ray diffraction of glucose-treated DLPC/cholesterol membranes under oxidative conditions (Example 8)
Method: Values are reported as mean±S.D. (N=3).
[…] Membranes were reconstituted from DLPC and cholesterol at a C/P mole ratio of 0.6:1 and treated with the various agents to achieve a total drug-to-phospholipid mole ratio of 1:30.
Multilamellar vesicles (MLVs) were prepared as binary mixtures of POPC and cholesterol at 50 mol %. MLVs with DLPC and cholesterol at cholesterol-to-phospholipid (C/P) mole ratios of 0.1:1 to 1.1:1 were also prepared in a similar manner. Component lipids (in chloroform) were transferred to borosilicate culture tubes and combined with vehicle (ethanol) or an equal volume of EPA, DHA, fenofibrate, niacin or gemfibrozil stock solution(s) and adjusted to achieve a drug-to-phospholipid (D/P) mole ratio of 1:30. Membranes reconstituted from POPC and cholesterol (at 50 mol % cholesterol) were treated with each of the various agents at 5 mol %. Samples were then shell-dried under nitrogen gas and placed under vacuum for 3 hours to remove residual solvent.
After drying, each sample was resuspended in glucose-free or glucose-containing saline buffer to yield a final phospholipid concentration of 2.5 mg/mL. Lipid suspensions were then vortexed for 3 minutes at ambient temperature to form MLVs.
Membrane samples were oriented for x-ray diffraction analysis as described in Mason, et al., J. Biol. Chem., vol. 281, pages 9337-45 (2006). […]

Q: For `CC(C)OC(=O)C(C)(C)Oc1ccc(C(=O)c2ccc(Cl)cc2)cc1` [fenofibrate, Fenofibrate], which “effect on d-space values” (10.0 μM, 0.6 C/P, glucose-induced lipid peroxidation 72 hours (FIG. 14)) is on record?
A: significant reductions in d-space

Q: And the “cholesterol domain peaks compared to samples treated with EPA” value (after 96 hours, C/P 0.6:1, drug-to-phospholipid 1:30)?
A: disproportionately greater
